Data on one molecule can be found in publication PMC10038992.

This test concerns the target T1, SBP-HA-CBP-KCTD7 (human KCTD7 fused to streptavidin- and calmodulin-binding peptides separated by an HA tag) (human) (UniProt Q96MP8).
T1 sequence: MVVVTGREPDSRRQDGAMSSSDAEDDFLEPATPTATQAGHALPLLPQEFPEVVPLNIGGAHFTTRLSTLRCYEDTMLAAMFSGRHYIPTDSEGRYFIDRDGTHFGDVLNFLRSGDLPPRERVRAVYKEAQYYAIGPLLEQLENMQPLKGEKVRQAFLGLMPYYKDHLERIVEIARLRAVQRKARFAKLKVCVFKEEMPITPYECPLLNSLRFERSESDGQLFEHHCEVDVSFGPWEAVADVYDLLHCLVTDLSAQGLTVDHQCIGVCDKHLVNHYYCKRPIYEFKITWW
The test is described as follows: affinity purification with mass spectrometry; tandem affinity purification (streptavidin resin, biotin elution, then calmodulin resin) of SBP-HA-CBP-KCTD7 from stable HEK293 cells; lysis in 10% glycerol, 50 mM HEPES-KOH pH 8.0, 100 mM KCl, 2 mM EDTA, 0.1% NP-40, 2 mM DTT; on-bead trypsin digest, nanoLC-MS/MS.

No constants are given. Whether binding was seen depends on the method and setting. In cells and extracts the contact can be indirect. These calls come from enrichment with a bait or labelling near it, and not all partners need be listed. Sequences can lack the tags named with a protein.

B1: CAPNS1 (regulatory subunit of m-calpain and μ-calpain; endogenous, HEK293) (protein, UniProt P04632 1-268)
chain: MFLVNSFLKGGGGGGGGGGGLGGGLGNVLGGLISGAGGGGGGGGGGGGGGGGGGGGTAMRILGGVISAISEAAAQYNPEPPPPRTHYSNIEANESEEVRQFRRLFAQLAGDDMEVSATELMNILNKVVTRHPDLKTDGFGIDTCRSMVAVMDSDTTGKLGFEEFKYLWNNIKRWQAIYKQFDTDRSGTICSSELPGAFEAAGFHLNEHLYNMIIRRYSDESGNMDFDNFISCLVRLDAMFRAFKSLDKDGTGQIQVNIQEWLQLTMYS
As for B1, the binding entry is reported as “binds”.
